In the supplement of paper PMC8728848:
The other results are listed elsewhere or left out.

Key:
Test in all cases: glycan array binding signal (z-score within array); higher = stronger binding
Settings in all cases: glycan notation: IUPAC condensed, linker removed
[1] = molecular target: Gal(b1-4)GlcNAc(b1-3)Gal(b1-4)GlcNAc(b1-3)Gal(b1-4)GlcNAc(b1-3)Gal(b1-4)GlcNAc(b1-2)Man(a1-3)[Gal(b1-4)GlcNAc(b1-3)Gal(b1-4)GlcNAc(b1-3)Gal(b1-4)GlcNAc(b1-3)Gal(b1-4)GlcNAc(b1-2)Man(a1-6)]Man(b1-4)GlcNAc(b1-4)[Fuc(a1-6)]GlcNAc
Procedure, shortened: (§1)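 Glycan array data came from 3228 arrays in the Consortium for Functional Glycomics database, and only arrays with an available protein sequence were kept. Glycan names were put into IUPAC-condensed notation, and columns mapping to the same glycan were averaged. The binding signal is a within-array Z-score, averaged across arrays of one protein sequence run at different concentrations or buffers and across linkers. A negative Z-score can be read as non-binding.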

[2] = molecular target: Gal(b1-4)GlcNAc(b1-3)Gal(b1-4)GlcNAc(b1-3)Gal(b1-4)GlcNAc(b1-3)Gal(b1-4)GlcNAc(b1-2)[Gal(b1-4)GlcNAc(b1-3)Gal(b1-4)GlcNAc(b1-3)Gal(b1-4)GlcNAc(b1-3)Gal(b1-4)GlcNAc(b1-6)]Man(a1-6)[Gal(b1-4)GlcNAc(b1-3)Gal(b1-4)GlcNAc(b1-3)Gal(b1-4)GlcNAc(b1-3)Gal(b1-4)GlcNAc(b1-2)Man(a1-3)]Man(b1-4)GlcNAc(b1-4)[Fuc(a1-6)]GlcNAc
Procedure, shortened: as §1

[3] = molecular target: Gal(b1-4)GlcNAc(b1-3)Gal(b1-4)GlcNAc(b1-3)Gal(b1-4)GlcNAc(b1-3)Gal(b1-4)GlcNAc(b1-3)Gal(b1-4)GlcNAc(b1-2)Man(a1-3)[Gal(b1-4)GlcNAc(b1-3)Gal(b1-4)GlcNAc(b1-3)Gal(b1-4)GlcNAc(b1-3)Gal(b1-4)GlcNAc(b1-3)Gal(b1-4)GlcNAc(b1-2)Man(a1-6)]Man(b1-4)GlcNAc(b1-4)GlcNAc
Procedure, shortened: as §1

[4] = molecular target: Gal(b1-4)GlcNAc(b1-3)Gal(b1-4)GlcNAc(b1-3)Gal(b1-4)GlcNAc(b1-3)Gal(b1-4)GlcNAc(b1-3)Gal(b1-4)GlcNAc(b1-2)Man(a1-3)[Gal(b1-4)GlcNAc(b1-3)Gal(b1-4)GlcNAc(b1-3)Gal(b1-4)GlcNAc(b1-3)Gal(b1-4)GlcNAc(b1-3)Gal(b1-4)GlcNAc(b1-2)Man(a1-6)]Man(b1-4)GlcNAc(b1-4)[Fuc(a1-6)]GlcNAc
Procedure, shortened: as §1

[5] = molecular target: Gal(b1-4)GlcNAc(b1-3)Gal(b1-4)GlcNAc(b1-3)Gal(b1-4)GlcNAc(b1-3)Gal(b1-4)GlcNAc(b1-3)Gal(b1-4)GlcNAc(b1-2)[Gal(b1-4)GlcNAc(b1-3)Gal(b1-4)GlcNAc(b1-3)Gal(b1-4)GlcNAc(b1-3)Gal(b1-4)GlcNAc(b1-3)Gal(b1-4)GlcNAc(b1-6)]Man(a1-6)[Gal(b1-4)GlcNAc(b1-3)Gal(b1-4)GlcNAc(b1-3)Gal(b1-4)GlcNAc(b1-3)Gal(b1-4)GlcNAc(b1-3)Gal(b1-4)GlcNAc(b1-2)Man(a1-3)]Man(b1-4)GlcNAc(b1-4)[Fuc(a1-6)]GlcNAc
Procedure, shortened: as §1

[6] = molecular target: Gal(b1-4)GlcNAc(b1-3)Gal(b1-4)GlcNAc(b1-3)Gal(b1-4)GlcNAc(b1-3)Gal(b1-4)GlcNAc(b1-3)Gal(b1-4)GlcNAc(b1-3)Gal(b1-4)GlcNAc(b1-2)Man(a1-3)[Gal(b1-4)GlcNAc(b1-3)Gal(b1-4)GlcNAc(b1-3)Gal(b1-4)GlcNAc(b1-3)Gal(b1-4)GlcNAc(b1-3)Gal(b1-4)GlcNAc(b1-3)Gal(b1-4)GlcNAc(b1-2)Man(a1-6)]Man(b1-4)GlcNAc(b1-4)GlcNAc
Procedure, shortened: as §1

[7] = molecular target: Gal(b1-4)GlcNAc(b1-3)Gal(b1-4)GlcNAc(b1-3)GalNAc
Procedure, shortened: as §1

[8] = molecular target: Gal(b1-4)GlcNAc(b1-3)Gal(b1-4)GlcNAc(b1-3)[Gal(b1-4)GlcNAc(b1-3)Gal(b1-4)GlcNAc(b1-6)]GalNAc
Procedure, shortened: as §1

[9] = molecular target: Gal(b1-4)GlcNAc(b1-3)Gal(b1-4)GlcNAc(b1-6)[Gal(b1-3)]GalNAc
Procedure, shortened: as §1

[10] = molecular target: Gal(b1-4)GlcNAc(b1-3)Gal(b1-4)[Fuc(a1-3)]GlcNAc(b1-3)Gal(b1-4)[Fuc(a1-3)]GlcNAc
Procedure, shortened: as §1

[11] = molecular target: Gal(b1-4)GlcNAc(b1-3)GalNAc
Procedure, shortened: as §1

[12] = molecular target: Gal(b1-4)GlcNAc(b1-3)[Fuc(a1-3)GlcNAc(b1-6)]Gal(b1-4)Glc
Procedure, shortened: as §1

[13] = molecular target: Gal(b1-4)GlcNAc(b1-3)[Gal(b1-4)GlcNAc(b1-6)]Gal(b1-4)GlcNAc
Procedure, shortened: as §1

[14] = molecular target: Gal(b1-4)GlcNAc(b1-3)[GlcNAc(b1-6)]Gal(b1-4)GlcNAc
Procedure, shortened: as §1

[15] = molecular target: Gal(b1-4)GlcNAc(b1-6)Gal(b1-4)GlcNAc
Procedure, shortened: as §1

[16] = molecular target: Gal(b1-4)GlcNAc(b1-6)GalNAc
Procedure, shortened: as §1

[17] = molecular target: Gal(b1-4)GlcNAc(b1-6)[Gal(b1-3)]GalNAc
Procedure, shortened: as §1

[18] = molecular target: Gal(b1-4)GlcNAc(b1-6)[Gal(b1-4)GlcNAc(b1-3)]GalNAc
Procedure, shortened: as §1

Gal(b1-4)GlcNAc6P = molecular target: Gal(b1-4)GlcNAc6P
Procedure, shortened: as §1

Gal(b1-6)Gal = molecular target: Gal(b1-6)Gal
Procedure, shortened: as §1

Gal3S(b1-3)GalNAc = molecular target: Gal3S(b1-3)GalNAc
Procedure, shortened: as §1

Gal3S(b1-3)GlcNAc = molecular target: Gal3S(b1-3)GlcNAc
Procedure, shortened: as §1

[19] = molecular target: Gal3S(b1-3)[Fuc(a1-4)]GlcNAc
Procedure, shortened: as §1

Gal3S(b1-4)Glc = molecular target: Gal3S(b1-4)Glc
Procedure, shortened: as §1

Gal3S(b1-4)Glc6S = molecular target: Gal3S(b1-4)Glc6S
Procedure, shortened: as §1

Gal3S(b1-4)GlcNAc = molecular target: Gal3S(b1-4)GlcNAc
Procedure, shortened: as §1

[20] = molecular target: Gal3S(b1-4)[Fuc(a1-3)]Glc6S
Procedure, shortened: as §1

[21] = molecular target: Gal3S(b1-4)[Fuc(a1-3)]GlcNAc
Procedure, shortened: as §1

[22] = molecular target: Gal3S(b1-4)[Fuc(a1-3)]GlcNAc6S
Procedure, shortened: as §1

Gal3S4S(b1-4)GlcNAc = molecular target: Gal3S4S(b1-4)GlcNAc
Procedure, shortened: as §1

Gal3S6S(b1-4)GlcNAc = molecular target: Gal3S6S(b1-4)GlcNAc
Procedure, shortened: as §1

Gal3S6S(b1-4)GlcNAc6S = molecular target: Gal3S6S(b1-4)GlcNAc6S
Procedure, shortened: as §1

Gal4S(b1-4)GlcNAc = molecular target: Gal4S(b1-4)GlcNAc
Procedure, shortened: as §1

Gal4S6S(b1-4)GlcNAc = molecular target: Gal4S6S(b1-4)GlcNAc
Procedure, shortened: as §1

Gal6P(b1-4)GlcNAc = molecular target: Gal6P(b1-4)GlcNAc
Procedure, shortened: as §1

Gal6S(b1-3)GlcNAc = molecular target: Gal6S(b1-3)GlcNAc
Procedure, shortened: as §1

Gal6S(b1-3)GlcNAc6S = molecular target: Gal6S(b1-3)GlcNAc6S
Procedure, shortened: as §1

Gal6S(b1-4)Glc = molecular target: Gal6S(b1-4)Glc
Procedure, shortened: as §1

B1: PX9916F-bfa-443-24-443 (Bacteroides fragilis) (protein)
chain: DIRPVGSVIPQTAEEYRALLARAYLNVPNDRGLACLRSDEMLVNDNEYDRNSYGDIERWNDVSPFPGTSQFTWSNFYNVLFIANQVIESQKEITEGTPEVVNQLVGEAHLLRAYLHFVLVNLHGQPYTKSGALNSKSIPLKLDTDLEKTLGRNTVEEVYTSILSDIEHARELINKEKWETVFSYRFNVLSVDALQSRVSLYMGAWPKCLESAEAVLAKKSVLVDMNETPLALPNHFESVESITALEQVMGSSVNNAVWVPATFLALYQEGDKRLAAYFAAPDENGNRKSSKGGKREFSCTFRVGELYLNAAEAAANMDKLPHARMRLLELMRKRYTPEAYDKKENAVNVMDKNALISEILNERARELAFEGHRWFDLRRTTRPRMVKVLQGKTYILEQDDPRYTIPIPRDAIAANPGLAN
[1]
  glycan array binding signal (z-score): -0.06
[2]
  glycan array binding signal (z-score): 0.287
[3]
  glycan array binding signal (z-score): 0.013
[4]
  glycan array binding signal (z-score): 0.299
[5]
  glycan array binding signal (z-score): 0.638
[6]
  glycan array binding signal (z-score): -0.582
[7]
  glycan array binding signal (z-score): -0.677
[8]
  glycan array binding signal (z-score): 1.47
[9]
  glycan array binding signal (z-score): 0.367
[10]
  glycan array binding signal (z-score): -0.167
[11]
  glycan array binding signal (z-score): -0.724
[12]
  glycan array binding signal (z-score): -0.52
[13]
  glycan array binding signal (z-score): -0.736
[14]
  glycan array binding signal (z-score): 0.609
[15]
  glycan array binding signal (z-score): -0.441
[16]
  glycan array binding signal (z-score): 1.24
[17]
  glycan array binding signal (z-score): -0.4
[18]
  glycan array binding signal (z-score): -0.27
Gal(b1-4)GlcNAc6P
  glycan array binding signal (z-score): 0.285
Gal(b1-6)Gal
  glycan array binding signal (z-score): -0.05
Gal3S(b1-3)GalNAc
  glycan array binding signal (z-score): -0.858
Gal3S(b1-3)GlcNAc
  glycan array binding signal (z-score): 0.98
[19]
  glycan array binding signal (z-score): -0.394
Gal3S(b1-4)Glc
  glycan array binding signal (z-score): 1.14
Gal3S(b1-4)Glc6S
  glycan array binding signal (z-score): -0.492
Gal3S(b1-4)GlcNAc
  glycan array binding signal (z-score): 0.715
[20]
  glycan array binding signal (z-score): -0.439
[21]
  glycan array binding signal (z-score): -0.371
[22]
  glycan array binding signal (z-score): 0.107
Gal3S4S(b1-4)GlcNAc
  glycan array binding signal (z-score): 1.19
Gal3S6S(b1-4)GlcNAc
  glycan array binding signal (z-score): 1.59
Gal3S6S(b1-4)GlcNAc6S
  glycan array binding signal (z-score): -0.581
Gal4S(b1-4)GlcNAc
  glycan array binding signal (z-score): -1.25
Gal4S6S(b1-4)GlcNAc
  glycan array binding signal (z-score): -0.274
Gal6P(b1-4)GlcNAc
  glycan array binding signal (z-score): 0.718
Gal6S(b1-3)GlcNAc
  glycan array binding signal (z-score): -0.111
Gal6S(b1-3)GlcNAc6S
  glycan array binding signal (z-score): -0.458
Gal6S(b1-4)Glc
  glycan array binding signal (z-score): 0.371
